These are yes or no findings as the source states them, for the method shown. For some assays here: Binding seen in cells or lysates may run through a third protein. Some results given as binding are weak or reduced against the parent protein; the word gives no strength.
How the values were obtained:
[1] = target: β-catenin (human (endogenous in colorectal CSC spheres)) (UniProt P35222); experiment: co-IP; anti-β-catenin antibody (IgG as control) on lysates of colorectal CSC spheres, protein A/G magnetic beads, 5 washes with lysis buffer, western blot; for GSK-3β and Axin2 in CSC28 with or without FAM84A overexpression
recombinant β-catenin = recombinant β-catenin (UniProt P35222); experiment: cross-linking; recombinant FAM84A and β-catenin mixed, 15 min at room temperature, DSS cross-linker 1.5 h at room temperature, trypsin and Glu-C digestion, LC-MS/MS, pLink 2.3.11; both purified

Protein sequences, listed by entry. Tags and fused reporters are not part of them.
UniProt P35222: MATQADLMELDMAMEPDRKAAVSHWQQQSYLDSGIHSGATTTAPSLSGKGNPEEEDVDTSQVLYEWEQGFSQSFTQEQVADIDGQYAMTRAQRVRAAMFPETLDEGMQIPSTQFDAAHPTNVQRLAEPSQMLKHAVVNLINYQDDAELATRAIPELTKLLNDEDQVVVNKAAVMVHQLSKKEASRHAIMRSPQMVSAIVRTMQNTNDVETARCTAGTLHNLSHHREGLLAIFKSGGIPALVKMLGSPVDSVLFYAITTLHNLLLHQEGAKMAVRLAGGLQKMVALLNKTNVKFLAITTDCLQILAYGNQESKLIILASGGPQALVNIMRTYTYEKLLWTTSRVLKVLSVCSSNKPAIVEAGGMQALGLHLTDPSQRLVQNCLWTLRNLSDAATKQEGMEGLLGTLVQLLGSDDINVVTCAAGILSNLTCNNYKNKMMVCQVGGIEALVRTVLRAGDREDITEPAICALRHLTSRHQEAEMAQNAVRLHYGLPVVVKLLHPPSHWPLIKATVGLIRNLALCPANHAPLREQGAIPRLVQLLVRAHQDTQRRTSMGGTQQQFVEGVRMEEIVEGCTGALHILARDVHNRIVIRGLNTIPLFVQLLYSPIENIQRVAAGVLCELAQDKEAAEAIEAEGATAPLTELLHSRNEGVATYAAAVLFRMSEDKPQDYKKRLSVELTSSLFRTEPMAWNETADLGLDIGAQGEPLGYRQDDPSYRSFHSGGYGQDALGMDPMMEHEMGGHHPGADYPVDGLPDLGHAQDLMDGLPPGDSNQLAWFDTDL

Row | binding [1] | binding (recombinant β-catenin) | Binder
1 | binds |  | FAM84A (protein, UniProt Q96KN4 1-292) MGNQLDRITHLNYSELPTGDPSGIEKDELRVGVAYFFSDDEEDLDERGQPDKFGVKAPPGCTPCPESPSRHHHHLLHQLVLNETQFSAFRGQECIFSKVSGGPQGADLSVYAVTALPALCEPGDLLELLWLQPAPEPPAPAPHWAVYVGGGQIIHLHQGEIRQDSLYEAGAANVGRVVNSWYRYRPLVAELVVQNACGHLGLKSEEICWTNSESFAAWCRFGKREFKAGGEVPAGTQPPQQQYYLKVHLGENKVHTARFHSLEDLIREKRRIDASGRLRVLQELADLVDDKE
2 |  | binds | recombinant FAM84A (protein, UniProt Q96KN4 1-292) MGNQLDRITHLNYSELPTGDPSGIEKDELRVGVAYFFSDDEEDLDERGQPDKFGVKAPPGCTPCPESPSRHHHHLLHQLVLNETQFSAFRGQECIFSKVSGGPQGADLSVYAVTALPALCEPGDLLELLWLQPAPEPPAPAPHWAVYVGGGQIIHLHQGEIRQDSLYEAGAANVGRVVNSWYRYRPLVAELVVQNACGHLGLKSEEICWTNSESFAAWCRFGKREFKAGGEVPAGTQPPQQQYYLKVHLGENKVHTARFHSLEDLIREKRRIDASGRLRVLQELADLVDDKE
